According to PubChem BioAssay AID504648 (National Center for Advancing Translational Sciences (NCATS), 2011):
Where “and” joins values, the source holds several entries; their conditions need not be identical. Equal entries are not always repeated. The whole screen tested about 390,000 compounds, of which about 610 (0.16%) were called active. The inconclusive results got no clear call from the source; some entries with a clear call stand among them for comparison. The call rests on the fitted dose curve; in most records, active means well fitted inhibition curve with a large enough effect; inconclusive means small, poorly fitted or top-dose-only effect, or effect the other way, or another doubt; inactive means no such curve, though single readings can be large or run the other way. Potencies of inconclusive entries are doubtful fits and often do not repeat. Where a structure was tested more than once in an assay, its records may differ in their call.

assay: Nrf2 qHTS screen for inhibitors: counterscreen for cytotoxicity; conditions: A549 ARE-Fluc cells, CellTiter-Fluor viability, 18-24 h; activity change, negative = cytotoxicity: at 46 µM (top of the series)
Method in brief: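 Cytotoxicity counterscreen: CellTiter-Fluor fluorescence was measured in A549 ARE_Fluc cells after 18-24 h of compound exposure in a concentration series. The subsequent BugLite luminescent read reports ARE-luciferase activity.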
On the % scale 0 is the no-effect control and ±100 the full control effect; potency means the concentration at half of the fitted maximal effect.

| SMILES | activity change, negative = cytotoxicity | Potency |
| --- | --- | --- |
| COC(=O)c1c(NC(=O)CN2C(=O)NC3(CCCCC3C)C2=O)sc2c1CCC2 (stereo unspecified) | inactive: -14% |  |
| CN1CCC2(CC1)C1CN(C)CC=C1C(C#N)=C(N)C2(C#N)C#N (stereo unspecified) |  | active: 16.4 µM |
| Cc1ccc2ccc(C(Nc3ccccn3)c3ccccc3)c(O)c2n1 (stereo unspecified) |  | inactive |
| CCOc1ccc(N(CC(=O)NC2CCCCC2)C(=O)CSc2nnc(COc3ccccc3)o2)cc1 |  | inconclusive: 23.1 µM [falling, single point] |
| O=C(Nc1nnc(-c2ccccc2F)s1)Nc1ccccc1F | inactive: 8.7% |  |
| Cc1ccc(Nc2ncccc2C(N)=O)cc1[N+](=O)[O-] | inactive: 1.32% |  |
| C/C(=N\NC(=S)Nc1c(C)cccc1C)c1ccc(OC(F)F)cc1 |  | inconclusive: 9.2 µM [falling, partial curve, poor fit] |
| CCOC(=O)C1=C(C)N(c2ccccc2)C(=O)C1 |  | inconclusive: 29.1 µM [falling, single point] |
| O=C(Cc1cccs1)N/N=C/C=C\c1ccco1 | inactive: -4.64% |  |
| COc1cccc2cc(-c3nc(-c4ccccc4)c(C)s3)c(=O)oc12 | inactive: -4.35% |  |
| CCCCC(CC)Cn1c(O)c(/C=C2\C=NN=C2c2ccccc2)sc1=S (stereo unspecified) |  | inconclusive: 18.4 µM [falling, partial curve] |
| S=C(NCc1ccccc1)NC1CCSc2ccccc21 (stereo unspecified) |  | inconclusive: 25.9 µM [activator, partial curve, poor fit] |
| c1coc(CNc2nc(N3CCCCC3)nc3ccccc23)c1 |  | inconclusive: 20.6 µM [falling, partial curve, poor fit] |
| CCOC(=O)c1c(C)c(-c2ccccc2)n(CC(=O)Nc2cc(OC)cc(OC)c2)c1C |  | inconclusive: 32.6 µM [falling, partial curve, poor fit] |
| Cc1ccc2c(c1)[nH]c1c(N3CCN(Cc4ccccc4)CC3)ncnc12 |  | inconclusive: 16.4 µM [falling, single point] |
| O=C(Cc1c(F)c(F)c(F)c(F)c1F)Nc1nc(-c2ccccc2)cs1 |  | inconclusive: 29.1 µM [falling, single point] |
| CN1CCc2c(sc(/N=C/c3cccs3)c2C(N)=O)C1 | inactive: -0.406% |  |
| Cc1cc(SCC(=O)N/N=C/c2ccco2)nc2ccccc12 | inactive: 11.8% |  |
| CN(c1cccc(NC(=O)CN(c2ccc(C34CC5CC(CC(C5)C3)C4)cc2)S(C)(=O)=O)c1)S(C)(=O)=O |  | inconclusive: 7.31 µM [falling, partial curve, poor fit] |
| Cc1nnc(N/N=C/c2cccc(OCc3ccc(Cl)c(Cl)c3)c2)n1N |  | inconclusive: 32.6 µM [falling, single point] |
| O=C(O)/C=C/S(=O)(=O)c1ccc2ccccc2c1 | inactive: -4.64% |  |
| Cc1cc(C(=O)N/N=C/c2cc(Br)ccc2OC(=O)c2ccccc2)n[nH]1 |  | inconclusive: 18.4 µM [falling, partial curve, poor fit] |

| SMILES | activity change, negative = cytotoxicity | Potency |
| --- | --- | --- |
| Cc1ccc(NC(=O)CN2CCCN(Cc3cc(C)ccc3C)S2(=O)=O)c(Cl)c1 | inactive: 12.1% |  |
| Cc1sc2nc3ccc(NCc4ccco4)nn3c(=O)c2c1C |  | inconclusive: 20.6 µM [activator, single point] |
| CC1Sc2ccc(S(=O)(=O)N3CCC(C(=O)NCc4ccc(Cl)cc4)CC3)cc2NC1=O (stereo unspecified) |  | inconclusive: 32.6 µM [falling, single point] |
| CN1CC(c2ccccc2)C2(SC(=S)N(Cc3ccco3)C2=O)C12C(=O)Nc1ccccc12 (stereo unspecified) |  | inconclusive: 29.1 µM [falling, single point] |
| C=CC[C@H](CC(=O)NCCO)C(=O)N[C@H](COC(=O)[C@@H](CC=C)Cc1ccc(F)cc1)Cc1ccccc1 |  | inconclusive: 23.1 µM [falling, single point] |
| COc1cccc(-n2ccnc2SCC(=O)Nc2cccc(C)c2C)c1 |  | inconclusive: 11.6 µM [activator, partial curve, poor fit] |
| O=C(C1COc2ccccc2O1)N1CCN(c2ccc([N+](=O)[O-])cc2)CC1 (stereo unspecified) |  | inconclusive: 20.6 µM [falling, partial curve] |
| CC1CC(C)CN(S(=O)(=O)c2ccc(Oc3ccc([N+](=O)[O-])cc3)cc2)C1 (stereo unspecified) | inactive: 12.1% |  |
| O=S1(=O)CCC(NC(=S)N2CCOCC2)C1 (stereo unspecified) | inactive: -1.35% |  |
| CC1(C)CC(=O)C2=C(C1)N=C1c3ccccc3C(=O)C1C2c1ccc(Cl)cc1 (stereo unspecified) |  | active: 25.9 µM |
| Cc1ccc2c(CNCCc3ccc(Cl)cc3)c(C(=O)O)n(Cc3ccc(F)cc3)c2c1 |  | inconclusive: 29.1 µM [falling, single point] |
| Cc1ccc(N2CC(C(=O)Nc3ccc(S(=O)(=O)N4CCCC4)cc3)CC2=O)cc1 (stereo unspecified) | inactive: -9.17% |  |
| Cc1cccn2c(=O)c3cc(C(=O)O)n(C)c3nc12 |  | inconclusive: 20.6 µM [activator, partial curve, poor fit] |
| Cc1ccc(-n2nnnc2Sc2ccc(S(=O)(=O)NCCN(C)C)cc2[N+](=O)[O-])cc1 |  | active: 6.51 µM |
| COc1ccc(NC(=O)c2ccc3c(c2)C(=O)N(CC2CCCO2)C3=O)cc1 (stereo unspecified) |  | inconclusive: 5.17 µM [falling, partial curve, poor fit] |
| CCCCOC(=O)NC1CCc2cc(OC)c(OC)c(OC)c2-c2ccc(SC)c(=O)cc21 (stereo unspecified) |  | inconclusive: 14.6 µM [falling, partial curve] |
| FC(F)(F)c1ccccc1/C=N/Nc1ccccn1 |  | inconclusive: 23.1 µM [activator, single point] |
| Clc1ccc2nc(-c3ccccn3)c(Nc3ccc4c(c3)OCO4)n2c1 |  | inconclusive: 23.1 µM [falling, single point] |
| CCOc1cc(/C=N/NC(=O)Nc2ccccc2)ccc1O |  | inconclusive: 13 µM [falling, partial curve, poor fit] |
| Cc1ccc(OCCCn2c(C3CC(=O)N(c4cccc(Cl)c4)C3)nc3ccccc32)c(C)c1 (stereo unspecified) | inactive: -15.5% |  |
| Clc1cccc(/C=N/Nc2nnc(Cl)c3ccccc23)c1 | inactive: -1.21% |  |
| CC1CCC2C(=O)N(c3ccc(S(=O)(=O)c4ccccc4)cc3)C(=O)C2C1 (stereo unspecified) |  | inconclusive: 32.6 µM [falling, partial curve, poor fit] |

| SMILES | activity change, negative = cytotoxicity | Potency |
| --- | --- | --- |
| COC(=O)/C=C/C(=O)N1CCN(c2ccccc2C)CC1 | inactive: -3.11% |  |
| O=C(NC1CCCCC1)c1cc([N+](=O)[O-])ccc1N1CCCC1 |  | inconclusive: 29.1 µM [falling, partial curve, poor fit] |
| Nc1nn(-c2ccccc2)c(N)c1N=Nc1ccccc1F |  | inconclusive: 11.6 µM [falling, partial curve] |
| CC1CCC2(CC1)NC(=O)N(CC(=O)c1ccc[nH]1)C2=O (stereo unspecified) | inactive: 0.267% |  |
| Cn1c(C(=O)O)cc2c(=O)n3ccccc3nc21 |  | inconclusive: 29.1 µM [activator, single point] |
| CCc1ccc2[nH]c(=O)c(C(c3nnnn3Cc3ccco3)N3CCC(C)CC3)cc2c1 (stereo unspecified) |  | inconclusive: 20.6 µM [falling, partial curve, poor fit] |
| Cc1cccc(Nc2nc(N)c([N+](=O)[O-])c(N3CCC(C)CC3)n2)c1 |  | inconclusive: 23.1 µM [falling, single point] |
| CC1CC(=O)Nc2ccccc2N1C(=O)COc1ccc2cc(Br)ccc2c1 (stereo unspecified) |  | inconclusive: 16.4 µM [falling, partial curve, poor fit] |
| CC(C)Oc1cccc(C(=O)NC(=S)Nc2cccc(C(F)(F)F)c2)c1 |  | inconclusive: 36.6 µM [activator, partial curve, poor fit] |
| Fc1ccc(C2=NN(c3ccccc3)C(c3ccco3)C2)cc1 (stereo unspecified) |  | inconclusive: 14.6 µM [activator, partial curve, poor fit] |
| O=C(c1ccc2c(c1)N(Cc1ccccc1F)C(=O)c1ccccc1S2(=O)=O)N1CCCCC1 |  | inconclusive: 25.9 µM [falling, single point] |
| COc1ccccc1NC(=O)c1c(Nc2ccccc2F)sc(C(=O)Nc2cccc(Cl)c2)c1N |  | inconclusive: 16.4 µM [falling, partial curve, poor fit] |
| CCOC(=O)c1[nH]c2ccc(F)cc2c1NC(=O)CN1CCN(C/C=C/c2ccccc2)CC1 |  | inconclusive: 29.1 µM [falling, single point] |
| CN(c1ccccc1)P(=O)(N(C)c1ccccc1)N(C)c1ccccc1 |  | inconclusive: 14.6 µM [falling, single point] |
| COC(=O)c1ccc(NC(=O)CN(C)Cc2cccc(F)c2)cc1 |  | inconclusive: 0.0116 µM [activator, full curve] |
| CN(c1ccccc1)c1nc(N2CCCC2)nc(-n2ccnc2)n1 | inactive: -10.2% |  |
| COc1ccc(-n2c(C)cc(C(=O)CCl)c2C)cc1 |  | inconclusive: 32.6 µM [falling, partial curve, poor fit] |
| O=C1NC[C@@H](c2ccccc2)OC(=O)[C@H](Cc2ccc(F)cc2)C/C=C\C[C@@H]1CC(=O)N(CCO)Cc1ccccc1 |  | inconclusive: 23.1 µM [falling, single point] |
| Cc1ccn2c(Nc3ccccc3C)c(-c3ccccn3)nc2c1 |  | inconclusive: 29.1 µM [falling, partial curve, poor fit] and inconclusive: 23.1 µM [falling, partial curve, poor fit] |
| CC(C)C(=O)NNC(=O)CN1CCN(c2nc(-c3ccccc3)cs2)CC1 | inactive: 0.389% |  |
| Cc1onc(C(=O)Nc2sc3c(c2C#N)CCCC3)c1[N+](=O)[O-] |  | inconclusive: 32.6 µM [activator, partial curve, poor fit] |
| CCn1cc(C(=O)N2CCN(c3cc(C)ccc3C)CC2)c(=O)c2cc(S(=O)(=O)N3CCOCC3)ccc21 | inactive: 2.4% |  |

In a second layout: entries from further up.
SMILES,"activity change, negative = cytotoxicity",Potency
CN(c1cccc(NC(=O)CN(c2ccc(C34CC5CC(CC(C5)C3)C4)cc2)S(C)(=O)=O)c1)S(C)(=O)=O,,"inconclusive: 7.31 µM [falling, partial curve, poor fit]"
Cc1nnc(N/N=C/c2cccc(OCc3ccc(Cl)c(Cl)c3)c2)n1N,,"inconclusive: 32.6 µM [falling, single point]"
O=C(O)/C=C/S(=O)(=O)c1ccc2ccccc2c1,inactive: -4.64%,
Cc1cc(C(=O)N/N=C/c2cc(Br)ccc2OC(=O)c2ccccc2)n[nH]1,,"inconclusive: 18.4 µM [falling, partial curve, poor fit]"
Cc1ccc(NC(=O)CN2CCCN(Cc3cc(C)ccc3C)S2(=O)=O)c(Cl)c1,inactive: 12.1%,
Cc1sc2nc3ccc(NCc4ccco4)nn3c(=O)c2c1C,,"inconclusive: 20.6 µM [activator, single point]"
CC1Sc2ccc(S(=O)(=O)N3CCC(C(=O)NCc4ccc(Cl)cc4)CC3)cc2NC1=O (stereo unspecified),,"inconclusive: 32.6 µM [falling, single point]"
CN1CC(c2ccccc2)C2(SC(=S)N(Cc3ccco3)C2=O)C12C(=O)Nc1ccccc12 (stereo unspecified),,"inconclusive: 29.1 µM [falling, single point]"
C=CC[C@H](CC(=O)NCCO)C(=O)N[C@H](COC(=O)[C@@H](CC=C)Cc1ccc(F)cc1)Cc1ccccc1,,"inconclusive: 23.1 µM [falling, single point]"
COc1cccc(-n2ccnc2SCC(=O)Nc2cccc(C)c2C)c1,,"inconclusive: 11.6 µM [activator, partial curve, poor fit]"
O=C(C1COc2ccccc2O1)N1CCN(c2ccc([N+](=O)[O-])cc2)CC1 (stereo unspecified),,"inconclusive: 20.6 µM [falling, partial curve]"
CC1CC(C)CN(S(=O)(=O)c2ccc(Oc3ccc([N+](=O)[O-])cc3)cc2)C1 (stereo unspecified),inactive: 12.1%,
O=S1(=O)CCC(NC(=S)N2CCOCC2)C1 (stereo unspecified),inactive: -1.35%,
CC1(C)CC(=O)C2=C(C1)N=C1c3ccccc3C(=O)C1C2c1ccc(Cl)cc1 (stereo unspecified),,active: 25.9 µM
Cc1ccc2c(CNCCc3ccc(Cl)cc3)c(C(=O)O)n(Cc3ccc(F)cc3)c2c1,,"inconclusive: 29.1 µM [falling, single point]"
Cc1ccc(N2CC(C(=O)Nc3ccc(S(=O)(=O)N4CCCC4)cc3)CC2=O)cc1 (stereo unspecified),inactive: -9.17%,
